Test results taken from ChEMBL document CHEMBL4808148, “HDAC6 screening dataset using tau-based substrate in an enzymatic assay yields selective inhibitors and activators” (2021).
Shown are results outside the selection of strong results, which stands elsewhere.

What follows are compounds tested against T1, Protein deacetylase HDAC6 (Homo sapiens) (UniProt Q9UBN7). Details: at 10 µM.
T1 sequence (whole entry): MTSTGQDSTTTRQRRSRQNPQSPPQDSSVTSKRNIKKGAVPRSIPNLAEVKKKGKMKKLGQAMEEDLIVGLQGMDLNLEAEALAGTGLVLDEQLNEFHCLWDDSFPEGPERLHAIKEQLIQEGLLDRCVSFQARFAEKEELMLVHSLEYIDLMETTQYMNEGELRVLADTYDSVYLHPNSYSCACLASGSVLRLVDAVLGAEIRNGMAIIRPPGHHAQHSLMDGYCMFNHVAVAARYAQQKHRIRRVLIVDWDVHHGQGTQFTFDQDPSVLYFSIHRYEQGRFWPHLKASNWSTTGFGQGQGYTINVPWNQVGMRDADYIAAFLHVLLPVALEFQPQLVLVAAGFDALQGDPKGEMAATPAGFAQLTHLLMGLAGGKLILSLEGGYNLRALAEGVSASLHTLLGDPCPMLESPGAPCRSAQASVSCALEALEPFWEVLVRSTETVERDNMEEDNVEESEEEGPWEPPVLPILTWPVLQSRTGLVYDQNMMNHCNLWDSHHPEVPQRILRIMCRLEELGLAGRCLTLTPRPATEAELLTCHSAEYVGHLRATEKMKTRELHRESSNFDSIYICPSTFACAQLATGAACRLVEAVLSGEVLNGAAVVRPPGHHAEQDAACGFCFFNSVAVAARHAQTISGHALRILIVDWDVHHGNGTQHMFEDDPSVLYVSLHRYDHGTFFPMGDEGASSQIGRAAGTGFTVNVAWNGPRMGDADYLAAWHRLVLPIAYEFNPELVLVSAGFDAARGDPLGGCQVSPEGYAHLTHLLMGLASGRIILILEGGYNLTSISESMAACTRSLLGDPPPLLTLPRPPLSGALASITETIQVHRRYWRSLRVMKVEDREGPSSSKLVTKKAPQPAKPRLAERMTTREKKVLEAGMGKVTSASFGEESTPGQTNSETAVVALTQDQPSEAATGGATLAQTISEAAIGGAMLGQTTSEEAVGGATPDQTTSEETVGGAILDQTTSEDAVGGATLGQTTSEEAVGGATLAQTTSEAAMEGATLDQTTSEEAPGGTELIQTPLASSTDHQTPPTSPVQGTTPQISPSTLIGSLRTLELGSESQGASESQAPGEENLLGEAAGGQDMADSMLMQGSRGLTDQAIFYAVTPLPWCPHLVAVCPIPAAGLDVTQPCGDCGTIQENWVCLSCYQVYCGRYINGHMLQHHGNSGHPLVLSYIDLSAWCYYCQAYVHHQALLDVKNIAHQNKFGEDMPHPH

Row | SMILES | inhibition [%]
1 | O=C1NC(=O)c2c1c(-c1ccccc1)cc1[nH]c3ccc(O)cc3c21 | 2.58
2 | Cc1ccc(C(=O)NCCCCCC(=O)Nc2ccccc2N)cc1 | -1.71
3 | CCC(C)C(C(=O)OCC[N+](C)(CC)CC)c1ccccc1 (configuration not stated) | 0.49
4 | COC(=O)[C@H](CCCNC(=N)N)NS(=O)(=O)c1ccc(C)cc1 | -5.01
5 | Cc1nc2c(-c3cnc(N)nc3)nc(N3CCOCC3)nc2n1C(C)C | 1.6
6 | CN1[C@@H]2CC[C@H]1C[C@@H](OC(=O)C(O)c1ccccc1)C2 (some centres not stated) | 7.69
7 | Cc1ccccc1-n1c(Cn2nc(-c3cccc(O)c3)c3c(N)ncnc32)nc2cccc(C)c2c1=O | -2.84
